In PubChem BioAssay AID504834 (National Center for Advancing Translational Sciences (NCATS), 2011):
The whole screen tested about 320,000 compounds, of which about 22,000 (6.9%) were called active. The inconclusive results got no clear call from the source; some entries with a clear call stand among them for comparison. Calls follow the shape of the dose curve; as a rule, active = well fitted inhibition curve with a large enough effect; inconclusive = small, poorly fitted or top-dose-only effect, or another doubt; inactive = no such curve, though single readings can be large or run the other way. Potencies beside an inconclusive call are fits to weak or partial responses and may not hold up.

Experiment: Primary qHTS for delayed death inhibitors of the malarial parasite plastid, 96 hour incubation
Conditions: P. falciparum luciferase reporter growth; series mostly up to 28.7 µM
Method in brief: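 Infected RBCs, 2% Hct / 0.05% parasitemia final; luciferase-reporter P. falciparum; cpd 96 h, 37 C, 5% CO2; luciferase detection reagent; luminescence.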
Potency is read from the fitted curve at half-maximal effect.

SMILES | Potency
CCOC(=O)Cc1csc(NC(=O)c2ccc3c(c2)OCO3)n1 | inconclusive: 18.5 µM [inhibitor, single point]
O=C(Cc1ccc(-n2c(=O)c3sccc3n(CC(=O)Nc3ccccc3)c2=O)cc1)NCc1ccco1 | inactive
O=C(C1=C(O)C(=O)N(CCCn2ccnc2)C1c1ccccc1)c1ccco1 (stereo unspecified) | inconclusive: 9.28 µM [inhibitor, partial curve, poor fit]
CCc1ccc(N2CC(C(=O)N3CCCCCC3)CC2=O)cc1 (stereo unspecified) | inconclusive: 0.0026 µM [inhibitor, full curve, poor fit]
NC(N)=NC(=O)c1nc(Cl)c(N2CCCCCC2)nc1N | active: 9.28 µM
COc1ccc(N2CCN(c3cnc4ccccc4n3)CC2)cc1 | inactive
Cc1cc2nsnc2c(S(=O)(=O)NCC(=O)O)c1C | inconclusive: 10.4 µM [inhibitor, partial curve, poor fit]
CCCCOC(=O)c1ccc(OC(=O)c2cccnc2)cc1 | inactive
CC(Sc1nnc(COc2ccc(Cl)cc2)n1Cc1ccccc1)C(=O)O (stereo unspecified) | inconclusive: 13.1 µM [inhibitor, single point]
O=C(O)c1cc(-c2cc(C(=O)O)c3ccccc3n2)nc2ccccc12 | inactive
CCC1CCCCN1CCCNC(=O)C1CCCN(c2nn3c(=O)cc(C)nc3s2)C1 (stereo unspecified) | inconclusive: 11.7 µM [inhibitor, single point]
O=C(Oc1ccc(N2C(=O)CCC2=O)cc1)c1ccccc1 | inconclusive: 5.86 µM [inhibitor, partial curve, poor fit]
COc1ccccc1C1CCN(c2ccc(CO)cc2[N+](=O)[O-])CC1 | inactive
Cc1nc2sc3c(c2c(=O)n1N)CCC3 | inactive
S=C(N/N=C/c1ccc(Br)cc1)N1CCCCC1 | inactive
O=[N+]([O-])c1cc(S(=O)(=O)NC2=NCCCCC2)ccc1NCC1CCCCC1 | inconclusive: 0.0294 µM [inhibitor, full curve, poor fit]
CC(=O)C1=C(O)C(=O)N(c2ccc(S(N)(=O)=O)cc2)C1c1cccc([N+](=O)[O-])c1 (stereo unspecified) | inactive
Cc1ccc(N/C(C(Cl)=C(Cl)Cl)=C(/Cl)[N+](=O)[O-])c(C)c1 | inconclusive: 11.7 µM [inhibitor, single point]
NC1=NC(=O)S/C1=C\c1ccc(F)cc1 | inconclusive: 0.928 µM [inhibitor, full curve, poor fit]
C=CCn1c(CCC(O)COCCCCC)n[nH]c1=S (stereo unspecified) | inactive
COCCCNC(=O)Cn1nc(-c2ccc(C)cc2)ccc1=O | inconclusive: 7.38 µM [inhibitor, partial curve]

Ordered by formula weight (low to high): some entries from above
SMILES | Potency
O=C(Oc1ccc(N2C(=O)CCC2=O)cc1)c1ccccc1 | inconclusive: 5.86 µM [inhibitor, partial curve, poor fit]
CCCCOC(=O)c1ccc(OC(=O)c2cccnc2)cc1 | inactive
Cc1cc2nsnc2c(S(=O)(=O)NCC(=O)O)c1C | inconclusive: 10.4 µM [inhibitor, partial curve, poor fit]
COc1ccccc1C1CCN(c2ccc(CO)cc2[N+](=O)[O-])CC1 | inactive
Cc1ccc(N/C(C(Cl)=C(Cl)Cl)=C(/Cl)[N+](=O)[O-])c(C)c1 | inconclusive: 11.7 µM [inhibitor, single point]
O=[N+]([O-])c1cc(S(=O)(=O)NC2=NCCCCC2)ccc1NCC1CCCCC1 | inconclusive: 0.0294 µM [inhibitor, full curve, poor fit]
